# Measurements as given in the supplement of paper PMC12067093, “Discovery and optimisation of a covalent ligand for TRIM25 and its application to targeted protein ubiquitination” (Chemical Science, 2025).
# The chains behind the UniProt entries cited, without tags or fusion partners. Where a name states a change or a piece, a line headed by the entry shows the natural chain unless it says otherwise.
# UniProt P61204: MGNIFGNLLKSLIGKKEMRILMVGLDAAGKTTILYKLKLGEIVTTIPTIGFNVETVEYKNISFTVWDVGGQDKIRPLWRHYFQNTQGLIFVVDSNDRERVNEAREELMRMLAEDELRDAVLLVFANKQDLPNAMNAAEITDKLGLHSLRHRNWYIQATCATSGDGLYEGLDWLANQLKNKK
# UniProt Q68CP9, whole entry, looked up: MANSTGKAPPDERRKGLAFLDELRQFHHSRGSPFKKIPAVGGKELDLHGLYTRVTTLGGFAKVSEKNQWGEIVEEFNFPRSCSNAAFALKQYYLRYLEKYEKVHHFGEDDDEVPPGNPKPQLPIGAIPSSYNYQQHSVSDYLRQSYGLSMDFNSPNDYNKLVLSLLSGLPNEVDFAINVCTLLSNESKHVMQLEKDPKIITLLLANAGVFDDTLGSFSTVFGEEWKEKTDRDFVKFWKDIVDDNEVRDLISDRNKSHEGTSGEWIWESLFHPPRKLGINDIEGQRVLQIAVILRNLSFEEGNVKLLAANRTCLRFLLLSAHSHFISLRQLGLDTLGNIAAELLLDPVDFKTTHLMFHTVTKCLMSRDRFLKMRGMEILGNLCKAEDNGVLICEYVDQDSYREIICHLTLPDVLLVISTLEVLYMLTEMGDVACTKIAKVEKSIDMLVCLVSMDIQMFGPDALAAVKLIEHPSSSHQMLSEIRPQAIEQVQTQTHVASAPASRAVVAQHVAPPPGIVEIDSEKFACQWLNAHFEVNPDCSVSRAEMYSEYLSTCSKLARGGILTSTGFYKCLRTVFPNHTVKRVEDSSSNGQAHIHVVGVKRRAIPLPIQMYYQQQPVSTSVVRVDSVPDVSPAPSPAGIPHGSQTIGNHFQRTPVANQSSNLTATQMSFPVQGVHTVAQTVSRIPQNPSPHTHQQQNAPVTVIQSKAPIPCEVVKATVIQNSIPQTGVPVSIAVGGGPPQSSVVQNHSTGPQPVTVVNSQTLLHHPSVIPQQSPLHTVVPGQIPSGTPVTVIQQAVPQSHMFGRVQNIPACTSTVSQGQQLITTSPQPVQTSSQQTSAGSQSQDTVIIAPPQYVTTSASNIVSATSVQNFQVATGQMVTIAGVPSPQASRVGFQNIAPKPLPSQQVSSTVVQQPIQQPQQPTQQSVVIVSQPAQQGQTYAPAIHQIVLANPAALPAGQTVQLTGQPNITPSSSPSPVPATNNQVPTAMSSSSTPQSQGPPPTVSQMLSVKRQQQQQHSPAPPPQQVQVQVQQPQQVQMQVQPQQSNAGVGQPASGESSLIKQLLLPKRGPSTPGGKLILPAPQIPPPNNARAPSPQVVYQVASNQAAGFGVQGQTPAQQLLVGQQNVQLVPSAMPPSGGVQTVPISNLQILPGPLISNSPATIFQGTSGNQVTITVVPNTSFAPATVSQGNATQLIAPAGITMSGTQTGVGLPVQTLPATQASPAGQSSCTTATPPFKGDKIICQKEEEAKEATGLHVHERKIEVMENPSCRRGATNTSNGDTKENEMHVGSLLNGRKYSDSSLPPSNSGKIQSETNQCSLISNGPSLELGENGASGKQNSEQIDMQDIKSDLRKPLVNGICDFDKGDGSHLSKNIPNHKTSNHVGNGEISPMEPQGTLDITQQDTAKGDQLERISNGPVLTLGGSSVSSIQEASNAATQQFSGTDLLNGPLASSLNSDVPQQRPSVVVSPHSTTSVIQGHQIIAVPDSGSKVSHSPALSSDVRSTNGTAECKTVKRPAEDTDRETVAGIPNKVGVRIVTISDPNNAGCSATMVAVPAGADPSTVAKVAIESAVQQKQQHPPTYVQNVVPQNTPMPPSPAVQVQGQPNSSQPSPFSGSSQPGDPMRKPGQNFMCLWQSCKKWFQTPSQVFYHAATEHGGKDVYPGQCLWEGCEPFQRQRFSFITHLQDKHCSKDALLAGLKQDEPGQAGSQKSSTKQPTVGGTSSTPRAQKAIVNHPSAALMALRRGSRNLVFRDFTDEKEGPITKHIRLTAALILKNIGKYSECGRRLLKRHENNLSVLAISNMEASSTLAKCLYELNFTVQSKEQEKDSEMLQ
# UniProt Q9UKG1: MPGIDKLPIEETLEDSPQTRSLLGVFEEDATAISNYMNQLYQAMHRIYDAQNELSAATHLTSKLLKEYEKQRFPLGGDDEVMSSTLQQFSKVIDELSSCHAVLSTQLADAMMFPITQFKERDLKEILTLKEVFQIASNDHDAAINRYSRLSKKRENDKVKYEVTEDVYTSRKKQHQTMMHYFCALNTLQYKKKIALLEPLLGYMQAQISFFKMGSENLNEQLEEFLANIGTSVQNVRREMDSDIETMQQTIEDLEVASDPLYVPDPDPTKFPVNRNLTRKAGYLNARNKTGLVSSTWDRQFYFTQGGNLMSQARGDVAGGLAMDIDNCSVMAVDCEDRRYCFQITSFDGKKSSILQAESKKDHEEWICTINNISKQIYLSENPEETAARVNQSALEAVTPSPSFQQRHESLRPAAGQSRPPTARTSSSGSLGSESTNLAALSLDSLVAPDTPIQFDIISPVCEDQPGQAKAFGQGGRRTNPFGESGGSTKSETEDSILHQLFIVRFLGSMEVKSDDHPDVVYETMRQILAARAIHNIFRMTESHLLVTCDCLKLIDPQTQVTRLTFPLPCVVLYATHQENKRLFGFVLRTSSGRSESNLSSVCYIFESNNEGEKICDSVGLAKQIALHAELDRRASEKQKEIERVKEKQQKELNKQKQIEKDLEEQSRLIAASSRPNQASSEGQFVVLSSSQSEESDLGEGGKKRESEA
# UniProt P07741: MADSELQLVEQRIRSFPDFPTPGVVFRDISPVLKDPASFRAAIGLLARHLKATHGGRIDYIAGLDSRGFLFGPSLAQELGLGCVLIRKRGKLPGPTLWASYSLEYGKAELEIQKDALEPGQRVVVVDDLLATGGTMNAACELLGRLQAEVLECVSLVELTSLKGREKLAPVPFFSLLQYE
# UniProt O60306: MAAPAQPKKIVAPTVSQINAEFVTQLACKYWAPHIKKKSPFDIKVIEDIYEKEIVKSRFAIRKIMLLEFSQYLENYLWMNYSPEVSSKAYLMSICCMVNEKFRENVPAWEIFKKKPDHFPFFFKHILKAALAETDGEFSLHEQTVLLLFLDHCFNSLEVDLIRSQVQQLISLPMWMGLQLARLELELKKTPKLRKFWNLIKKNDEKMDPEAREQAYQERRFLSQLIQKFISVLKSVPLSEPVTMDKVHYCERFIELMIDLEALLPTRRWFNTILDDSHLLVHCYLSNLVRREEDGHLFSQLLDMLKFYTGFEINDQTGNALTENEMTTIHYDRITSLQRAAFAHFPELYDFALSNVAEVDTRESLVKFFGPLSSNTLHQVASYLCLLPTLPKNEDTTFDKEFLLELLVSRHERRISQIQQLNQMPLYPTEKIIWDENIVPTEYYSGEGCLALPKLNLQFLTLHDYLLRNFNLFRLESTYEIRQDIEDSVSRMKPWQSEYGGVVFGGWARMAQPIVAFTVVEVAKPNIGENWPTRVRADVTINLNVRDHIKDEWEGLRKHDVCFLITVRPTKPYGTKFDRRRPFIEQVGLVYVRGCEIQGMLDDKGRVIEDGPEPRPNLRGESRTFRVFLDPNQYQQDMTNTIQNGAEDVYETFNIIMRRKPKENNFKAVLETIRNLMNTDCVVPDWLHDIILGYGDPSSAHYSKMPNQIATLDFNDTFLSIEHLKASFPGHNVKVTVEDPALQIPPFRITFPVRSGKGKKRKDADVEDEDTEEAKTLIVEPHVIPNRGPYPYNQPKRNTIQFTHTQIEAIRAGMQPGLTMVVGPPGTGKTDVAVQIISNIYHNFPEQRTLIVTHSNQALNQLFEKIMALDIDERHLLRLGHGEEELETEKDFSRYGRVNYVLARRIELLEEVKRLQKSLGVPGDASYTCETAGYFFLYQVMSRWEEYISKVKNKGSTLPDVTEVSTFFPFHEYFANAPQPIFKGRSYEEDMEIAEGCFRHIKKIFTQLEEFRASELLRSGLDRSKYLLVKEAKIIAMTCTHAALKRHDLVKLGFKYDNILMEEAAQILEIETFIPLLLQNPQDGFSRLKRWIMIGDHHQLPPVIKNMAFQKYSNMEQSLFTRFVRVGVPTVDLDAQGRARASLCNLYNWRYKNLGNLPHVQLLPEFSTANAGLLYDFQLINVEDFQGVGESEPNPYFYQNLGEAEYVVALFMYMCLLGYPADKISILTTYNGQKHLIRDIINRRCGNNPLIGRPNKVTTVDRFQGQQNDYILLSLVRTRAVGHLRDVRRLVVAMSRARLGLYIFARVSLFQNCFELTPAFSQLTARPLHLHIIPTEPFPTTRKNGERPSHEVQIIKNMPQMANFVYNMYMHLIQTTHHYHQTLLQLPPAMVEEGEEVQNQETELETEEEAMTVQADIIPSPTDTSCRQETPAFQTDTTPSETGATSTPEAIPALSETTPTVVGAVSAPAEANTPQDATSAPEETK
# UniProt Q8TER5, whole entry, looked up: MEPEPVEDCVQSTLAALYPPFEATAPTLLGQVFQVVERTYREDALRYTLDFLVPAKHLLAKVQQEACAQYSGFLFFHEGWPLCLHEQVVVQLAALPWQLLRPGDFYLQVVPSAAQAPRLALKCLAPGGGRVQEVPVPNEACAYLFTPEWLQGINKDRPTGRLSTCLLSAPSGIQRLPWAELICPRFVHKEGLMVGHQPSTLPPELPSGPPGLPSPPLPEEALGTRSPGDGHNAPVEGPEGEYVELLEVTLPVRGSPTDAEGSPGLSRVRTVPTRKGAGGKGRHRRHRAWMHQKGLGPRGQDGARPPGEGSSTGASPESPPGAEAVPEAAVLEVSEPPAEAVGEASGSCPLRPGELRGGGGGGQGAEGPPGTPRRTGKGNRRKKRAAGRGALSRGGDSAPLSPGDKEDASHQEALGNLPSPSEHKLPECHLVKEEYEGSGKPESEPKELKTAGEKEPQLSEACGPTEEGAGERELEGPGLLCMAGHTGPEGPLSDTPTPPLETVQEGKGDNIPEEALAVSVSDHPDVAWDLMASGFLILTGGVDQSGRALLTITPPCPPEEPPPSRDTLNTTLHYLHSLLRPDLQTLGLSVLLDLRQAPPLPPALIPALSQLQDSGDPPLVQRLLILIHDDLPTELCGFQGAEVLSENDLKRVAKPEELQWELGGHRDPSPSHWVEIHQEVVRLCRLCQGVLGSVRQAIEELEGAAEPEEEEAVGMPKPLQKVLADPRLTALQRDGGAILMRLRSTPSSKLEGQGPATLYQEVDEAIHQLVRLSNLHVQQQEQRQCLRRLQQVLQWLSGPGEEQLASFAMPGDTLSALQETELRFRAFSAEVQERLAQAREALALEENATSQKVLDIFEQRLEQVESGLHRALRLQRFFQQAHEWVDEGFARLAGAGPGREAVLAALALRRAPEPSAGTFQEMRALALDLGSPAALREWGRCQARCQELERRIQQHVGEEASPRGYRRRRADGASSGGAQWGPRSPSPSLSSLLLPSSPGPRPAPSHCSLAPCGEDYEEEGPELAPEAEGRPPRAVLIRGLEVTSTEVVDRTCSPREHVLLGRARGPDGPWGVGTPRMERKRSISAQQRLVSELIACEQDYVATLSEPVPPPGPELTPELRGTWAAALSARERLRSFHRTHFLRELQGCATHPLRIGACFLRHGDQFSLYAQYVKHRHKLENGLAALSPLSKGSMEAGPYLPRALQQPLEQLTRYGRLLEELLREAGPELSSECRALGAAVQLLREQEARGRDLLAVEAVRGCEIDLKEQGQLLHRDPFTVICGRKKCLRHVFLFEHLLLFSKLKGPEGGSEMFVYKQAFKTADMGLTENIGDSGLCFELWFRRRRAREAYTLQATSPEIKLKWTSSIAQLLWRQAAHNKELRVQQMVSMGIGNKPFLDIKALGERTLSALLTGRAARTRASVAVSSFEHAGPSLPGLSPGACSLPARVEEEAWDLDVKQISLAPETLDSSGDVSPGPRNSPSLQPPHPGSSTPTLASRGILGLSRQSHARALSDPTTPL
# UniProt P42331: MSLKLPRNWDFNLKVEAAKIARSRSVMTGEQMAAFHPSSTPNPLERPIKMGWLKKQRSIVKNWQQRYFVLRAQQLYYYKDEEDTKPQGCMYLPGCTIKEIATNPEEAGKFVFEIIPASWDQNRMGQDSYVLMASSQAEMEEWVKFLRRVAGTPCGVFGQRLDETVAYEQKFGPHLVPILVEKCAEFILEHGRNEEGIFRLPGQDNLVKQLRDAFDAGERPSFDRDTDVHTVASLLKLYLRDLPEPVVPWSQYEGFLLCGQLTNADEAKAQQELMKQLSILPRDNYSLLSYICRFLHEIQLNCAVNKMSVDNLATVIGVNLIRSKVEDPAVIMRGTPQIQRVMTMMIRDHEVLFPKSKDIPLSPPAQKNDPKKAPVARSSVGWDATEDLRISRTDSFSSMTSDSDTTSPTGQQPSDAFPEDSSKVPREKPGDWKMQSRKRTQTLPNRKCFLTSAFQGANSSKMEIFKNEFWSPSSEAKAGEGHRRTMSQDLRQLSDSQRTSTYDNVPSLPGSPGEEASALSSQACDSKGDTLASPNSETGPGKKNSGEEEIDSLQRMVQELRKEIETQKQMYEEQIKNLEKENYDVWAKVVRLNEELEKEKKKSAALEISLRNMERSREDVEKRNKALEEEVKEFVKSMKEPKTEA
# The other results are listed elsewhere or left out.
# Compound: CC1Cc2ccccc2N1C(=O)C1CCCN(C1)C(=O)CCl (mixture of isomers) [TRIM25 ligand 11 (diastereomer mixture)]
# Test: probe-labelled cysteine peptide fold change vs DMSO (competition) (log2 fold change); higher = less target engagement (more negative = stronger competition)
# Details: THP-1, incubation time: 4 h
# 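Note: competitive chemoproteomic profiling in live THP-1 cells with an iodoacetamide desthiobiotin (IA-DTB) probe, comparing probe-labelled peptide intensities in compound-treated cells against DMSO-treated controls.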
Target,probe-labelled cysteine peptide fold change (10 µM),probe-labelled cysteine peptide fold change (50 µM)
ARNT_P27540_400_NIVEFCHPEDQQLLR (UniProt P27540),0.207,0.149
ARF3_P61204_159_HRNWYIQATCATSGDGLYEGLDWLANQLK (UniProt P61204),-0.226,-0.355
ARHGEF11_O15085_866_FQLFMQEAESHPQCR (UniProt O15085),0.187,0.0513
ARHGEF6_Q15052_418_TLMGQCQDLR (UniProt Q15052),0.233,0.204
ARHGEF18_Q6ZSZ5_315_ECVNGHQLLQGTFSGPSSCPLCGKPFLSSASLK (UniProt Q6ZSZ5),-0.187,-0.0792
ARIH2_O95376_270_QMYHAPTDCATIR (UniProt O95376),0.073,0.145
ARHGAP17_Q68EM7_53_LVACFQGQHGTDAERR (UniProt Q68EM7),0.0214,-0.0123
ARID1A_O14497_2043_EEEQDQGVSCNK (UniProt O14497),0.662,0.268
ARID1A_O14497_1827_NDPFVVDCSDK (UniProt O14497),0.000311,-0.0989
ARHGAP27_Q6ZUM4_703_DQVFGCALAALCER (UniProt Q6ZUM4),-0.0677,0.0541
ARID2_Q68CP9_525_FACQWLNAHFEVNPDCSVSR (UniProt Q68CP9),0.0447,0.28
APPL1_Q9UKG1_368_DHEEWICTINNISK (UniProt Q9UKG1),-0.0639,-0.0724
ARHGAP11A_Q6P4F7_451_EVNGCSGVNR (UniProt Q6P4F7),-0.0271,-0.137
ARCN1_P48444_441_NTLEWCLPVIDAK (UniProt P48444),-0.159,-0.0281
ARHGAP35_Q9NRY4_924_FTSIPCSQPQHK (UniProt Q9NRY4),0.127,0.014
ARHGAP44_Q17R89_193_ADALREEMEEAANRVEICR (UniProt Q17R89),-0.149,0.0811
ARHGAP1_Q07960_91_KIIVFSACR (UniProt Q07960),-0.223,-0.138
ARHGEF6_Q15052_25_TICDPEEFLK (UniProt Q15052),-0.118,-0.121
ARAP3_Q8WWN8_835_GDHLFLCSAPGPGPPAPEDMVHLR (UniProt Q8WWN8),0.0134,-0.0903
ARHGAP9_Q9BRR9_666_AALALSESEQCLSQIQELIGSMPKPNHDTLR (UniProt Q9BRR9),-0.245,-0.323
ARL6IP4_Q66PJ3_243_ASTAPGAEASPSPCITER (UniProt Q66PJ3),-0.00569,0.0914

# Complete entries from above.
# ARIH2_O95376_270_QMYHAPTDCATIR (UniProt O95376) as listed: probe-labelled cysteine peptide fold change (10 µM) = 0.073; probe-labelled cysteine peptide fold change (50 µM) = 0.145
# ARHGEF18_Q6ZSZ5_315_ECVNGHQLLQGTFSGPSSCPLCGKPFLSSASLK (UniProt Q6ZSZ5) as listed: probe-labelled cysteine peptide fold change (10 µM) = -0.187; probe-labelled cysteine peptide fold change (50 µM) = -0.0792
# ARCN1_P48444_441_NTLEWCLPVIDAK (UniProt P48444) as listed: probe-labelled cysteine peptide fold change (10 µM) = -0.159; probe-labelled cysteine peptide fold change (50 µM) = -0.0281
# ARF3_P61204_159_HRNWYIQATCATSGDGLYEGLDWLANQLK (UniProt P61204) as listed: probe-labelled cysteine peptide fold change (10 µM) = -0.226; probe-labelled cysteine peptide fold change (50 µM) = -0.355

# (listing goes on)

Target,probe-labelled cysteine peptide fold change (10 µM),probe-labelled cysteine peptide fold change (50 µM)
ARMT1_Q9H993_159_EQNFYGSQESIIALCTHLQQLIR (UniProt Q9H993),0.176,0.292
ARCN1_P48444_441_RNTLEWCLPVIDAK (UniProt P48444),-0.0146,0.00634
APOBR_Q0VD83_844_VEAEESAGAEDSCGLDPAGSQTAR (UniProt Q0VD83),-0.144,-0.0476
ARHGEF6_Q15052_119_ATEDQLSERPCGR (UniProt Q15052),-0.0511,-0.0611
ARID1B_Q8NFD5_1141_QYIQYLFAFECK (UniProt Q8NFD5),0.0406,0.142
ARPC1B_O15143_227_VAWVSHDSTVCLADADKK (UniProt O15143),0.153,-0.0521
APPL2_Q8NEU8_606_ICYAINLGK (UniProt Q8NEU8),0.195,0.246
APRT_P07741_83_GFLFGPSLAQELGLGCVLIR (UniProt P07741),0.21,-0.0847
ARHGAP17_Q68EM7_305_AALDCSTSHLDEFYSDPHAVAGALK (UniProt Q68EM7),0.0514,-0.0366
ARHGEF12_Q9NZN5_1128_TVWQDLICR (UniProt Q9NZN5),-0.028,0.106
ARHGAP4_P98171_855_CLVPASPEQHVEVDK (UniProt P98171),0.00446,-0.299
AQR_O60306_1039_IIAMTCTHAALK (UniProt O60306),0.0155,0.175
ARL6_Q9H0F7_22_EVHVLCLGLDNSGK (UniProt Q9H0F7),-0.061,0.0744
ARID2_Q68CP9_1271_IEVMENPSCR (UniProt Q68CP9),0.107,-0.219
ARHGDIB_P52566_76_LTLVCESAPGPITMDLTGDLEALKK (UniProt P52566),-0.0734,0.203
ARHGEF40_Q8TER5_1262_GCEIDLK (UniProt Q8TER5),0.0307,0.0923
ARPC1B_O15143_227_VAWVSHDSTVCLADADK (UniProt O15143),0.316,0.0213
APTX_Q7Z2E3_333_CHECQQLLPSIPQLK (UniProt Q7Z2E3),-0.088,-0.0506
APOBEC3G_Q9HC16_160_IMNYDEFQHCWSK (UniProt Q9HC16),0.0416,0.0628
ARHGEF2_Q92974_306_QALCPGSTR (UniProt Q92974),0.0543,0.045
ARFGEF1_Q9Y6D6_1685_LLDCLLESHR (UniProt Q9Y6D6),0.0498,0.0246

Target,probe-labelled cysteine peptide fold change (10 µM),probe-labelled cysteine peptide fold change (50 µM)
ARHGAP45_Q92619_278_CEGGVDAALLYAK (UniProt Q92619),-0.0145,-0.0277
ARPC1B_O15143_13_AYHSFLVEPISCHAWNK (UniProt O15143),0.262,-0.0758
ARAP1_Q96P48_1176_VAGTASGTQHAGDFICTVYLEEK (UniProt Q96P48),0.102,0.0408
ARHGAP25_P42331_292_DNYSLLSYICR (UniProt P42331),0.00187,-0.0581
APP_P05067_144_MDVCETHLHWHTVAK (UniProt P05067),-0.042,-0.087
ARHGAP30_Q7Z6I6_965_IHVAPANPCPR (UniProt Q7Z6I6),0.0712,-0.00183
APP_P05067_158_ETCSEK (UniProt P05067),0.0161,0.0395
ARPC1B_O15143_26_DRTQIAICPNNHEVHIYEK (UniProt O15143),-0.0132,0.0123
AQR_O60306_997_SYEEDMEIAEGCFR (UniProt O60306),0.258,0.218
ARHGEF18_Q6ZSZ5_295_ECVNGHQLLQGTFSGPSSCPLCGKPFLSSASLK (UniProt Q6ZSZ5),-0.0898,-0.246
ARHGAP4_P98171_34_CLELQGELR (UniProt P98171),0.103,-0.103
ARHGAP25_P42331_89_AQQLYYYKDEEDTKPQGCMYLPGCTIK (UniProt P42331),-0.122,0.0538
ARMCX3_Q9UH62_52_MAEGGSGDVDDAGDCSGAR (UniProt Q9UH62),-0.248,-0.267
ARMC8_Q8IUR7_264_CLTYMCR (UniProt Q8IUR7),-0.0562,0.151
ARAP1_Q96P48_995_KCGQTSK (UniProt Q96P48),-0.225,-0.37
ARID2_Q68CP9_1271_KIEVMENPSCR (UniProt Q68CP9),-0.128,-0.356
ARAP1_Q96P48_774_RWCVLGDGVLSYFENER (UniProt Q96P48),-0.154,0.0578
ARHGEF6_Q15052_319_VGGCLLSLMPHFK (UniProt Q15052),-0.288,-0.0828
ARHGAP4_P98171_102_KEPSLLSPLHCWAVLLQHTR (UniProt P98171),-0.014,-0.0472
ARID2_Q68CP9_382_GMEILGNLCK (UniProt Q68CP9),-0.000335,0.149
ARF4_P18085_62_NICFTVWDVGGQDR (UniProt P18085),0.182,0.283

Target,probe-labelled cysteine peptide fold change (10 µM),probe-labelled cysteine peptide fold change (50 µM)
ARHGEF11_O15085_402_GVLCEAQEAAMPEIQEQIHDYR (UniProt O15085),-0.212,-0.509
ARFGEF2_Q9Y6D5_1617_LLDCLQESHSFSK (UniProt Q9Y6D5),0.0257,0.00817
ARL1_P40616_95_CYYSNTDAVIYVVDSCDRDR (UniProt P40616),-0.117,0.0101
ARHGEF1_Q92888_752_KNWCALITETAGSLK (UniProt Q92888),-0.437,-0.331
ARHGEF18_Q6ZSZ5_105_RLSLDASAVDEEPCLPR (UniProt Q6ZSZ5),-0.123,0.116
ARFRP1_Q13795_141_QDVETCLSIPDIK (UniProt Q13795),0.0693,0.0395
ARIH1_Q9Y4X5_418_YLFYCNR (UniProt Q9Y4X5),0.0974,0.149
ARHGEF6_Q15052_738_QCLEEELK (UniProt Q15052),-0.0932,0.125
APPL1_Q9UKG1_570_LTFPLPCVVLYATHQENK (UniProt Q9UKG1),-0.28,0.115
ARIH2_O95376_326_HDFCWMCLGDWK (UniProt O95376),-0.0551,-0.112
ARHGAP4_P98171_569_VSEIRDAFERGEDPLVEGCTAHDLDSVAGVLK (UniProt P98171),-0.213,-0.101
ARHGEF2_Q92974_56_YTNGHLFTTISVSGMTMCYACNK (UniProt Q92974),0.207,0.11
ARHGAP30_Q7Z6I6_640_GSGSLEGEAAGCGR (UniProt Q7Z6I6),-0.132,-0.294
ARHGEF2_Q92974_342_TYSEFCSR (UniProt Q92974),0.0143,0.0669
ARFGAP2_Q8N6H7_97_QHGCTANDANTK (UniProt Q8N6H7),-0.00842,-0.00956
ARNT_P27540_62_CDDDQMSNDK (UniProt P27540),-0.141,-0.179
ARHGEF2_Q92974_86_DTLANCTK (UniProt Q92974),-0.0833,-0.0694
ARID4A_P29374_356_LVYHQGGCDNIDSGAVWK (UniProt P29374),-0.107,-0.0505
ARHGEF40_Q8TER5_1148_ELQGCATHPLR (UniProt Q8TER5),0.126,0.0937
ARCN1_P48444_9_VLLAAAVCTK (UniProt P48444),0.0133,-0.0172
